Reference: paper doi:10.1101/2024.09.09.611999

Protein sequences, listed by entry. Tags and fused reporters are not part of them.
UniProt P11142: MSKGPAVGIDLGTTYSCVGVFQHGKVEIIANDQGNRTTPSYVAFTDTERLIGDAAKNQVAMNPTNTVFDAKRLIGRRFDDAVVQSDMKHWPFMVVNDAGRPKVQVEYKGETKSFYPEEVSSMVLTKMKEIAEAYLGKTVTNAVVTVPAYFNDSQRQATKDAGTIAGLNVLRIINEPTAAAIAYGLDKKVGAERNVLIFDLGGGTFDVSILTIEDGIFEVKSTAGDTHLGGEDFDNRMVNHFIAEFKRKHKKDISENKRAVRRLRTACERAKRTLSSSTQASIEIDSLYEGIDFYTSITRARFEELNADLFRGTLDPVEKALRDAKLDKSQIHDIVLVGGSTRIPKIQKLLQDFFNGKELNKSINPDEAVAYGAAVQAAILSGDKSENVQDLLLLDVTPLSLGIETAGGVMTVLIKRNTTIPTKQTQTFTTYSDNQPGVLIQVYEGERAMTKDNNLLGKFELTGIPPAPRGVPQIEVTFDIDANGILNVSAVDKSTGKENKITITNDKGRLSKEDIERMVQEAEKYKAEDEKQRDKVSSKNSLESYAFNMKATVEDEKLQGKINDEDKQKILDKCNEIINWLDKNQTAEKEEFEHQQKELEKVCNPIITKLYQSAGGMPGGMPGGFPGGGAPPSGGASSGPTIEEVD

Target: T1, peroxiredoxin 6 (PRDX6) (human) (UniProt P30041)
T1 sequence: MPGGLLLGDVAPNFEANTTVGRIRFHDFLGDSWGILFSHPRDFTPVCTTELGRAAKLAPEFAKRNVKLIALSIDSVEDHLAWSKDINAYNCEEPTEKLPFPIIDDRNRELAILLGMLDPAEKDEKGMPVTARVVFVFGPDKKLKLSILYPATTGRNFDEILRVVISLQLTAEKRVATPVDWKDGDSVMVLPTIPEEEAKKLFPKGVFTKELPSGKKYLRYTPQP
Experiment: affinity purification with mass spectrometry

In the case of HSPA8 (from UniProt P11142 1-646), the binding was “binds”.

These are yes or no findings as the source states them, for the method shown. Binding seen in cells or lysates may run through a third protein. Here binding means that the protein was enriched with, or labelled near, the bait; the list need not be complete.
